PubChem BioAssay AID686943 | Drosophila RNAi Screening Center | 2013
Assay: 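Search across the genome for regulators of signalling from receptor tyrosine kinase to ERK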 (primary screen). Cell system: Drosophila S2R+ haemocyte-like cells expressing YFP-tagged ERK (Rolled). Reagent: long dsRNA against Drosophila genes. Conditions: insulin stimulation versus unstimulated cells; dose and duration not given. Measured: 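Antibody staining for doubly phosphorylated ERK divided by ERK-YFP signal, as plate z-scores, in insulin-treated and untreated cells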. Scale: replicate 1, z-score of dpERK with insulin and replicate 2, z-score of dpERK with insulin: higher = more active ERK per ERK-YFP after insulin.
The screen tested about 23,000 reagents; shown is a random part of those with a known target gene and a result. 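Extra replicates exist only for a retested subset of genes; insulin dose and duration not given; both raised and lowered dpERK matter.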 Names joined by + are all predicted targets of the reagent. Not all columns of the deposit are shown. No sequences are given here. The record does not give: the amount of reagent, the time to read-out.

Depletion of nrv1 (nervana 1) [DRSC03382] resulted in: replicate 1, z-score of dpERK with insulin 3.35; replicate 2, z-score of dpERK with insulin 2.53. Depletion of Nup160 + RfC38 [DRSC01997] gave: replicate 1, z-score of dpERK with insulin -0.15; replicate 2, z-score of dpERK with insulin -0.76. betaNACtes3 (Nascent-associated complex beta-subunit-like, testis 3) [DRSC20183] showed replicate 1, z-score of dpERK with insulin 0; replicate 2, z-score of dpERK with insulin 0.29. CG31797 [DRSC02476] gave replicate 1, z-score of dpERK with insulin 0; replicate 2, z-score of dpERK with insulin 0.37. For CG31797 [DRSC02477], the entry reads replicate 1, z-score of dpERK with insulin 0.88; replicate 2, z-score of dpERK with insulin 0.5. Knock-down of CG7044 [DRSC16180] came out at: replicate 1, z-score of dpERK with insulin -0.91; replicate 2, z-score of dpERK with insulin -0.17.

With knock-down of CG14929 [DRSC02411], the record shows replicate 1, z-score of dpERK with insulin -0.01; replicate 2, z-score of dpERK with insulin 0.49. Knock-down of CG15631 [DRSC00466] came out at: replicate 1, z-score of dpERK with insulin 0.07; replicate 2, z-score of dpERK with insulin -0.75. CG14864 [DRSC14987] scored replicate 1, z-score of dpERK with insulin -0.21; replicate 2, z-score of dpERK with insulin -0.74. CG8272 [DRSC07134] showed replicate 1, z-score of dpERK with insulin 0.46; replicate 2, z-score of dpERK with insulin 0.43. Against CG30031 + deltaTry + gammaTry [DRSC07622], the values are replicate 1, z-score of dpERK with insulin -0.2; replicate 2, z-score of dpERK with insulin -1.71. Zaf1 (ZAD and Architectural Function 1) [DRSC16121] gave replicate 1, z-score of dpERK with insulin 0.83; replicate 2, z-score of dpERK with insulin 0.97.

In a second layout: 2 of the entries above.
{"target": "CG30031 + deltaTry + gammaTry", "amplicon": "DRSC07622", "replicate 1, z-score of dpERK with insulin": -0.2, "replicate 2, z-score of dpERK with insulin": -1.71}
{"target": "Zaf1 (ZAD and Architectural Function 1)", "amplicon": "DRSC16121", "replicate 1, z-score of dpERK with insulin": 0.83, "replicate 2, z-score of dpERK with insulin": 0.97}
